Some of these results come from one statement about several compounds together.
Experiments:
Type in all cases: in vivo
Botrytis cinerea = assay: Preventing infection by cucumber gray mold, foliage application; conditions: cucumber (Sagami-Hanjiro), flowable formulation 500 ppm foliage application, then inoculation; 12° C. high humidity 5 days
[1] = tested on: Verticillium albo-atrum, V. dahliae, V. nigrescens; assay: Potato blue stem, soil irrigation treatment; conditions: potato (Danshaku) in contaminated soil, 10 mg compound per pot by soil irrigation, 2 months
Gaeumannomyces graminis = assay: Malt damping off, seed treatment; conditions: contaminated malt seeds, seed treatment 200 g compound per 100 kg seeds, 1 month
Fusarium oxysporum = assay: Preventing infection by tomato wilt by soil treatment (irrigation); conditions: tomato (Patio) in contaminated soil, 10 mg compound per pot by soil irrigation, 1 month
Gibberella fujikuroi = assay: Rice bakanae disease, seed treatment; conditions: contaminated unhulled rice, seed treatment 200 g compound per 100 kg seeds, 1 month
Sclerotinia sclerotiorum [2] = assay: Preventing infection by cucumber sclerotical disease by soil treatment (irrigation); conditions: cucumber (Sagami-Hanjiro), 1 mg compound per pot by soil irrigation, inoculation after 1 week; 18° C. high humidity 4 days
Sclerotinia sclerotiorum [3] = assay: Preventing infection by cucumber Sclerotinia rot, foliage application; conditions: cucumber (Sagami-Hanjiro), flowable formulation 500 ppm foliage application, then inoculation; 18° C. high humidity 4 days

Structure (SMILES): O=C(NCc1ccccc1)c1ccc2ncccc2c1 [Compound 1, N-benzyl-6-quinoline carboxamide]
- infected areas of treated plants relative to infected areas of untreated plants (Botrytis cinerea): ≤ 10%
- blotches in treated plants [1]: no blotches are found
- growth of treated plants [1]: favorably grow at a level equivalent to that of plants that grow in noncontaminated soil
- growth of treated plants (Gaeumannomyces graminis): favorably grow at a level equivalent to that of plants that grow from noncontaminated seeds
- blotches in treated plants (Fusarium oxysporum): no blotches are found
- growth of treated plants (Fusarium oxysporum): favorably grow at a level equivalent to that of plants that grow have in noncontaminated soil
- growth of treated plants (Gibberella fujikuroi): favorably grow at a level equivalent to that of plants that have grown from noncontaminated unhulled rice
- infected areas of treated plants relative to infected areas of untreated plants (Sclerotinia sclerotiorum [2]): ≤ 10%
- infected areas of treated plants relative to infected areas of untreated plants (Sclerotinia sclerotiorum [3]): ≤ 10%

Structure (SMILES): O=C(NCc1cccs1)c1ccc2ncccc2c1 [Compound 42]
- infected areas of treated plants relative to infected areas of untreated plants (Botrytis cinerea): ≤ 10%
- blotches in treated plants [1]: no blotches are found
- growth of treated plants [1]: favorably grow at a level equivalent to that of plants that grow in noncontaminated soil
- growth of treated plants (Gaeumannomyces graminis): favorably grow at a level equivalent to that of plants that grow from noncontaminated seeds
- blotches in treated plants (Fusarium oxysporum): no blotches are found
- growth of treated plants (Fusarium oxysporum): favorably grow at a level equivalent to that of plants that grow have in noncontaminated soil
- growth of treated plants (Gibberella fujikuroi): favorably grow at a level equivalent to that of plants that have grown from noncontaminated unhulled rice
- infected areas of treated plants relative to infected areas of untreated plants (Sclerotinia sclerotiorum [2]): ≤ 10%
- infected areas of treated plants relative to infected areas of untreated plants (Sclerotinia sclerotiorum [3]): ≤ 10%

Structure (SMILES): O=C(NCc1cc(F)ccc1F)c1ccc2ncccc2c1 [Compound 60]
- infected areas of treated plants relative to infected areas of untreated plants (Botrytis cinerea): ≤ 10%
- blotches in treated plants [1]: no blotches are found
- growth of treated plants [1]: favorably grow at a level equivalent to that of plants that grow in noncontaminated soil
- growth of treated plants (Gaeumannomyces graminis): favorably grow at a level equivalent to that of plants that grow from noncontaminated seeds
- blotches in treated plants (Fusarium oxysporum): no blotches are found
- growth of treated plants (Fusarium oxysporum): favorably grow at a level equivalent to that of plants that grow have in noncontaminated soil
- growth of treated plants (Gibberella fujikuroi): favorably grow at a level equivalent to that of plants that have grown from noncontaminated unhulled rice
- infected areas of treated plants relative to infected areas of untreated plants (Sclerotinia sclerotiorum [2]): ≤ 10%
- infected areas of treated plants relative to infected areas of untreated plants (Sclerotinia sclerotiorum [3]): ≤ 10%

Structure (SMILES): O=C(NCc1c(F)cccc1F)c1ccc2ncccc2c1 [Compound 62]
- infected areas of treated plants relative to infected areas of untreated plants (Botrytis cinerea): ≤ 10%
- blotches in treated plants [1]: no blotches are found
- growth of treated plants [1]: favorably grow at a level equivalent to that of plants that grow in noncontaminated soil
- growth of treated plants (Gaeumannomyces graminis): favorably grow at a level equivalent to that of plants that grow from noncontaminated seeds
- blotches in treated plants (Fusarium oxysporum): no blotches are found
- growth of treated plants (Fusarium oxysporum): favorably grow at a level equivalent to that of plants that grow have in noncontaminated soil
- growth of treated plants (Gibberella fujikuroi): favorably grow at a level equivalent to that of plants that have grown from noncontaminated unhulled rice
- infected areas of treated plants relative to infected areas of untreated plants (Sclerotinia sclerotiorum [2]): ≤ 10%
- infected areas of treated plants relative to infected areas of untreated plants (Sclerotinia sclerotiorum [3]): ≤ 10%

Structure (SMILES): O=C(NCc1ccccc1)c1cc2cccnc2cc1F [Compound 83]
- blotches in treated plants [1]: no blotches are found
- growth of treated plants [1]: favorably grow at a level equivalent to that of plants that grow in noncontaminated soil
- growth of treated plants (Gaeumannomyces graminis): favorably grow at a level equivalent to that of plants that grow from noncontaminated seeds
- blotches in treated plants (Fusarium oxysporum): no blotches are found
- growth of treated plants (Fusarium oxysporum): favorably grow at a level equivalent to that of plants that grow have in noncontaminated soil
- growth of treated plants (Gibberella fujikuroi): favorably grow at a level equivalent to that of plants that have grown from noncontaminated unhulled rice
- infected areas of treated plants relative to infected areas of untreated plants (Sclerotinia sclerotiorum [2]): ≤ 10%
- infected areas of treated plants relative to infected areas of untreated plants (Sclerotinia sclerotiorum [3]): ≤ 10%

Structure (SMILES): O=C(NCc1ccccc1F)c1cc2cccnc2cc1F [Compound 84]
- blotches in treated plants [1]: no blotches are found
- growth of treated plants [1]: favorably grow at a level equivalent to that of plants that grow in noncontaminated soil
- growth of treated plants (Gaeumannomyces graminis): favorably grow at a level equivalent to that of plants that grow from noncontaminated seeds
- blotches in treated plants (Fusarium oxysporum): no blotches are found
- growth of treated plants (Fusarium oxysporum): favorably grow at a level equivalent to that of plants that grow have in noncontaminated soil
- growth of treated plants (Gibberella fujikuroi): favorably grow at a level equivalent to that of plants that have grown from noncontaminated unhulled rice
- infected areas of treated plants relative to infected areas of untreated plants (Sclerotinia sclerotiorum [2]): ≤ 10%
- infected areas of treated plants relative to infected areas of untreated plants (Sclerotinia sclerotiorum [3]): ≤ 10%

Structure (SMILES): O=C(NCc1ccccc1F)c1cc(F)c2ncccc2c1 [Compound 94]
- blotches in treated plants [1]: no blotches are found
- growth of treated plants [1]: favorably grow at a level equivalent to that of plants that grow in noncontaminated soil
- growth of treated plants (Gaeumannomyces graminis): favorably grow at a level equivalent to that of plants that grow from noncontaminated seeds
- blotches in treated plants (Fusarium oxysporum): no blotches are found
- growth of treated plants (Fusarium oxysporum): favorably grow at a level equivalent to that of plants that grow have in noncontaminated soil
- growth of treated plants (Gibberella fujikuroi): favorably grow at a level equivalent to that of plants that have grown from noncontaminated unhulled rice
- infected areas of treated plants relative to infected areas of untreated plants (Sclerotinia sclerotiorum [2]): ≤ 10%
- infected areas of treated plants relative to infected areas of untreated plants (Sclerotinia sclerotiorum [3]): ≤ 10%

Structure (SMILES): Cc1ccc(CNC(=O)c2ccc3ncccc3c2)c(F)c1 [Compound 105]
- infected areas of treated plants relative to infected areas of untreated plants (Botrytis cinerea): ≤ 10%
- blotches in treated plants [1]: no blotches are found
- growth of treated plants [1]: favorably grow at a level equivalent to that of plants that grow in noncontaminated soil
- growth of treated plants (Gaeumannomyces graminis): favorably grow at a level equivalent to that of plants that grow from noncontaminated seeds
- blotches in treated plants (Fusarium oxysporum): no blotches are found
- growth of treated plants (Fusarium oxysporum): favorably grow at a level equivalent to that of plants that grow have in noncontaminated soil
- growth of treated plants (Gibberella fujikuroi): favorably grow at a level equivalent to that of plants that have grown from noncontaminated unhulled rice
- infected areas of treated plants relative to infected areas of untreated plants (Sclerotinia sclerotiorum [2]): ≤ 10%
- infected areas of treated plants relative to infected areas of untreated plants (Sclerotinia sclerotiorum [3]): ≤ 10%

Structure (SMILES): O=C(NCc1cccc(Br)c1F)c1ccc2ncccc2c1 [Compound 117]
- infected areas of treated plants relative to infected areas of untreated plants (Botrytis cinerea): ≤ 10%
- blotches in treated plants [1]: no blotches are found
- growth of treated plants [1]: favorably grow at a level equivalent to that of plants that grow in noncontaminated soil
- growth of treated plants (Gaeumannomyces graminis): favorably grow at a level equivalent to that of plants that grow from noncontaminated seeds
- blotches in treated plants (Fusarium oxysporum): no blotches are found
- growth of treated plants (Fusarium oxysporum): favorably grow at a level equivalent to that of plants that grow have in noncontaminated soil
- growth of treated plants (Gibberella fujikuroi): favorably grow at a level equivalent to that of plants that have grown from noncontaminated unhulled rice
- infected areas of treated plants relative to infected areas of untreated plants (Sclerotinia sclerotiorum [2]): ≤ 10%
- infected areas of treated plants relative to infected areas of untreated plants (Sclerotinia sclerotiorum [3]): ≤ 10%

Structure (SMILES): O=C(NCc1cccc(C2CC2)c1)c1ccc2ncccc2c1 [Compound 118]
- infected areas of treated plants relative to infected areas of untreated plants (Botrytis cinerea): ≤ 10%
- blotches in treated plants [1]: no blotches are found
- growth of treated plants [1]: favorably grow at a level equivalent to that of plants that grow in noncontaminated soil
- growth of treated plants (Gaeumannomyces graminis): favorably grow at a level equivalent to that of plants that grow from noncontaminated seeds
- blotches in treated plants (Fusarium oxysporum): no blotches are found
- growth of treated plants (Fusarium oxysporum): favorably grow at a level equivalent to that of plants that grow have in noncontaminated soil
- growth of treated plants (Gibberella fujikuroi): favorably grow at a level equivalent to that of plants that have grown from noncontaminated unhulled rice
- infected areas of treated plants relative to infected areas of untreated plants (Sclerotinia sclerotiorum [2]): ≤ 10%
- infected areas of treated plants relative to infected areas of untreated plants (Sclerotinia sclerotiorum [3]): ≤ 10%

Structure (SMILES): Cc1ccc(CNC(=O)c2ccc3ncccc3c2)s1 [Compound 145]
- infected areas of treated plants relative to infected areas of untreated plants (Botrytis cinerea): ≤ 10%
- blotches in treated plants [1]: no blotches are found
- growth of treated plants [1]: favorably grow at a level equivalent to that of plants that grow in noncontaminated soil
- growth of treated plants (Gaeumannomyces graminis): favorably grow at a level equivalent to that of plants that grow from noncontaminated seeds
- blotches in treated plants (Fusarium oxysporum): no blotches are found
- growth of treated plants (Fusarium oxysporum): favorably grow at a level equivalent to that of plants that grow have in noncontaminated soil
- growth of treated plants (Gibberella fujikuroi): favorably grow at a level equivalent to that of plants that have grown from noncontaminated unhulled rice
- infected areas of treated plants relative to infected areas of untreated plants (Sclerotinia sclerotiorum [2]): ≤ 10%
- infected areas of treated plants relative to infected areas of untreated plants (Sclerotinia sclerotiorum [3]): ≤ 10%

Structure (SMILES): COc1ccc(CNC(=O)c2ccc3ncccc3c2)cc1 [Compound 170]
- blotches in treated plants [1]: no blotches are found
- growth of treated plants [1]: favorably grow at a level equivalent to that of plants that grow in noncontaminated soil
- growth of treated plants (Gaeumannomyces graminis): favorably grow at a level equivalent to that of plants that grow from noncontaminated seeds
- blotches in treated plants (Fusarium oxysporum): no blotches are found
- growth of treated plants (Fusarium oxysporum): favorably grow at a level equivalent to that of plants that grow have in noncontaminated soil
- growth of treated plants (Gibberella fujikuroi): favorably grow at a level equivalent to that of plants that have grown from noncontaminated unhulled rice
- infected areas of treated plants relative to infected areas of untreated plants (Sclerotinia sclerotiorum [2]): ≤ 10%
- infected areas of treated plants relative to infected areas of untreated plants (Sclerotinia sclerotiorum [3]): ≤ 10%

From patent US20100041694A1, “AGRICULTURAL COMPOSITION FOR CONTROLLING OR PREVENTING PLANT DISEASES CAUSED BY PLANT PATHOGENIC MICROBES” (Sumitomo Chemical Company, Limited, priority 2007, published 2010)
